Experimental data: paper PMC8264664
Results are given in words; binding and its absence hold for the method and conditions named. In cells and extracts the contact can be indirect. Some entries that bind do so weakly or less than the wild type. Tags and fused reporters may be left off the sequences shown.

T1: FLAG-MTBP (MDM2 binding protein), in HEK293 cells (UniProt Q96DY7)
T1 sequence: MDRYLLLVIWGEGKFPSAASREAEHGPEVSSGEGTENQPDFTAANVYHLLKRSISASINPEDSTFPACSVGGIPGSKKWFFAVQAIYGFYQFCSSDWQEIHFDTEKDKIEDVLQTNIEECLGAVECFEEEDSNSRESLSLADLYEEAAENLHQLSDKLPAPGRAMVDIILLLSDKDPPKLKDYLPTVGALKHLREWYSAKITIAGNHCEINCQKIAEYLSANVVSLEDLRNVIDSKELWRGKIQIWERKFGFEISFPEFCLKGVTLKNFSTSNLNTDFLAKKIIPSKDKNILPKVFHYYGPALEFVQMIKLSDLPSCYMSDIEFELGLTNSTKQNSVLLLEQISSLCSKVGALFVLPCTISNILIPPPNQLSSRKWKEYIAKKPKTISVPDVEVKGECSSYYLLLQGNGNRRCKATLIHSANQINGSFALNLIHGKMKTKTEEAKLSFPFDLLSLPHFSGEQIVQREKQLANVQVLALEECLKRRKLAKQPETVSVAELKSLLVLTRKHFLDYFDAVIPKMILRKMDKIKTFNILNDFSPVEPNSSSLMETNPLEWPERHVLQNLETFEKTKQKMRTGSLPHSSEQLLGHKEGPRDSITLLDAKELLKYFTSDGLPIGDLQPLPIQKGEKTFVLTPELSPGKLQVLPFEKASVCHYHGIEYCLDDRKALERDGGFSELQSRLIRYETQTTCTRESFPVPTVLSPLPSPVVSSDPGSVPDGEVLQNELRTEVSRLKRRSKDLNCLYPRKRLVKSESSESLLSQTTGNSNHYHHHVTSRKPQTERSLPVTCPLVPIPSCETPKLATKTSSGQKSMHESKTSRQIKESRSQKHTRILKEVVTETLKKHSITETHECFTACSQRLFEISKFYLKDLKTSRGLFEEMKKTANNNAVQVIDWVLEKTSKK

T2: FLAG-MTBP (MDM2 binding protein), in MHCC97-H cells (UniProt Q96DY7)
T2 sequence: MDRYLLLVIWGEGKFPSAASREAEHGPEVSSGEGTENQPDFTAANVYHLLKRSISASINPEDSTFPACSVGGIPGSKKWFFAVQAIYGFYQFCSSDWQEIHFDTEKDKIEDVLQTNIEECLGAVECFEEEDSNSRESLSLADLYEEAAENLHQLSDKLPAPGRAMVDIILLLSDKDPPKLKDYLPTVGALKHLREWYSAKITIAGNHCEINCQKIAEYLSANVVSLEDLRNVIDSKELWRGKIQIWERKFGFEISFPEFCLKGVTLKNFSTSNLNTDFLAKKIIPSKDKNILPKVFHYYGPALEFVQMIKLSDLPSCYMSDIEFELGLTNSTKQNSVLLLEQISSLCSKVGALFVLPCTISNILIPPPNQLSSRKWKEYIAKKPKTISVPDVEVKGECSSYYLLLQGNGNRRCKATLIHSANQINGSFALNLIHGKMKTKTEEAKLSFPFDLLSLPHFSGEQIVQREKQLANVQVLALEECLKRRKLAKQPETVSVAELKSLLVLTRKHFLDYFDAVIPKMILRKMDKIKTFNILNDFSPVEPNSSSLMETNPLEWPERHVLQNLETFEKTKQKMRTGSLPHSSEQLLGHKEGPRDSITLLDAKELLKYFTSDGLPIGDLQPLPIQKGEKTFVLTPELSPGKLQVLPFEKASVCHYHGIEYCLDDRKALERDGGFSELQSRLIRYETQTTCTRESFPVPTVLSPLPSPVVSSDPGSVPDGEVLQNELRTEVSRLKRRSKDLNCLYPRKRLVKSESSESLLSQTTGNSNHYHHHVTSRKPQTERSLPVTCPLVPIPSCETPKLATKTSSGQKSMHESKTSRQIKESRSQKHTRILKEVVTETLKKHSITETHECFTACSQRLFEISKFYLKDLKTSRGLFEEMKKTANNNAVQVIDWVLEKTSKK

B1: HA-PXR (Pregnane X receptor), in HEK293 cells (protein, UniProt O75469 1-434)
chain: MEVRPKESWNHADFVHCEDTESVPGKPSVNADEEVGGPQICRVCGDKATGYHFNVMTCEGCKGFFRRAMKRNARLRCPFRKGACEITRKTRRQCQACRLRKCLESGMKKEMIMSDEAVEERRALIKRKKSERTGTQPLGVQGLTEEQRMMIRELMDAQMKTFDTTFSHFKNFRLPGVLSSGCELPESLQAPSREEAAKWSQVRKDLCSLKVSLQLRGEDGSVWNYKPPADSGGKEIFSLLPHMADMSTYMFKGIISFAKVISYFRDLPIEDQISLLKGAAFELCQLRFNTVFNAETGTWECGRLSYCLEDTAGGFQQLLLEPMLKFHYMLKKLQLHEEEYVLMQAISLFSPDRPGVLQHRVVDQLQEQFAITLKSYIECNRPQPAHRFLFLKIMAMLTELRSINAQHTQRLLRIQDIHPFATPLMQELFGITGS
B2: PXR (Pregnane X receptor) in MHCC97-H cells (protein, UniProt O75469 1-434)
chain: MEVRPKESWNHADFVHCEDTESVPGKPSVNADEEVGGPQICRVCGDKATGYHFNVMTCEGCKGFFRRAMKRNARLRCPFRKGACEITRKTRRQCQACRLRKCLESGMKKEMIMSDEAVEERRALIKRKKSERTGTQPLGVQGLTEEQRMMIRELMDAQMKTFDTTFSHFKNFRLPGVLSSGCELPESLQAPSREEAAKWSQVRKDLCSLKVSLQLRGEDGSVWNYKPPADSGGKEIFSLLPHMADMSTYMFKGIISFAKVISYFRDLPIEDQISLLKGAAFELCQLRFNTVFNAETGTWECGRLSYCLEDTAGGFQQLLLEPMLKFHYMLKKLQLHEEEYVLMQAISLFSPDRPGVLQHRVVDQLQEQFAITLKSYIECNRPQPAHRFLFLKIMAMLTELRSINAQHTQRLLRIQDIHPFATPLMQELFGITGS

Columns and labels:
[1] = molecular target: T1, FLAG-MTBP (MDM2 binding protein), in HEK293 cells; assay: co-IP; HEK293 cells co-transfected with HA-PXR and FLAG-MTBP; which protein was precipitated is not told
[2] = molecular target: T2, FLAG-MTBP (MDM2 binding protein), in MHCC97-H cells; assay: co-IP; MHCC97-H cells transfected with FLAG-MTBP; which protein was precipitated is not told

Row | Binder | binding [1] | binding [2]
1 | B1 | binds | 
2 | B2 |  | binds
